# Where “and” joins values, the source holds several entries; their conditions need not be identical. Equal values may be shown once. About 7,700 (2.3%) of roughly 330,000 compounds were called active. Inconclusive means that the source gave no clear call. Such entries were picked first, then a sample of the others. Calls follow the shape of the dose curve; as a rule, active = well fitted inhibition curve with a large enough effect; inconclusive = small, poorly fitted or top-dose-only effect, or effect the other way; inactive = flat fitted curve, though single readings scatter. Potencies of inconclusive entries are doubtful fits and often do not repeat.
# Experiment: qHTS screen for small molecules that inhibit ELG1-dependent DNA repair in human embryonic kidney (HEK293T) cells expressing luciferase-tagged ELG1; also: nearly all actives have a fitted effect of over 55% in size
# Details: HEK293T ELG1-luciferase reporter, luminescence, 16 h, DNA damage induced by 5-fluorouridine; series mostly up to 46.1 µM
# In short: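 Reporter activity after DNA damage by 5-fluorouridine is monitored. Compound-treated cells incubate 16 hr at 37 °C, then ONE-Glo is added for 30 min before luminescence reading.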
# Potency is read from the fitted curve at half-maximal effect.
row,Structure (SMILES),Potency
1,O=c1c(Cc2ccc(Cl)cc2Cl)c(O)ccn1Cc1ccc(Cl)cc1,"inconclusive: 29.1 µM [inhibitor, partial curve, poor fit]"
2,O=C(CNC(=O)c1ccccc1F)Nc1ccc2c(c1)OCO2,"inconclusive: 14.6 µM [activator, partial curve]"
3,CCCS(=O)(=O)N1CCC(Cc2ccc(OC)cc2)(C(=O)OCC)CC1,"inconclusive: 18.3 µM [inhibitor, partial curve, poor fit]"
4,CCc1ccn2cc(-c3cc(-c4ccccc4)no3)nc2c1,"inconclusive: 0.0651 µM [activator, full curve, poor fit]"
5,C=CCn1c(SCc2nc3ccccc3nc2C)nnc1-c1ccoc1C,"inconclusive: 5.8 µM [inhibitor, full curve, poor fit]"
6,O=C(CCCN1C(=O)/C(=C/c2ccc3c(c2)OCO3)SC1=S)Nc1cccc(C(=O)O)c1,"inconclusive: 18.3 µM [activator, single point]"
7,Cc1cc(Nc2ccccc2)n2nc(C)c(-c3ccccc3)c2n1,inactive
8,Cc1ccc(CNC(=O)/C=C/c2cccs2)cc1,"inconclusive: 16.4 µM [activator, single point]"
9,COc1ccc(OC)c(-c2nnc(SCC(=O)N3CCCC3)o2)c1,inactive
10,COC(=O)c1c(NC(=O)C2CCCCC2C(=O)O)sc2c1CCCCC2 (stereo not given),"inconclusive: 29.1 µM [activator, single point]"
11,O=C(Nc1ccc([N+](=O)[O-])cc1)c1ccc(S(=O)(=O)N2CCCC2)cc1,"inconclusive: 4.11 µM [inhibitor, single point]"
12,CCOc1ccc(-c2[nH]ncc2Oc2ccccc2OCC)c(O)c1,inactive
13,CCNC(=O)COC(=O)C1C(C(=O)OCC)=C(C)NC(C)=C1C(=O)OCC,inactive
14,C[C@H]1O[C@@H](O[C@H]2[C@@H](O)C[C@H](O[C@H]3[C@@H](O)C[C@H](O[C@H]4CC[C@@]5(C)[C@H](CC[C@@H]6[C@@H]5C[C@@H](O)[C@]5(C)[C@@H](C7=CC(=O)OC7)CC[C@]65O)C4)O[C@@H]3C)O[C@@H]2C)C[C@H](O)[C@@H]1O,active: 259 nM and active: 164 nM
15,c1ccc(-c2nnc3sc(-c4ccncc4)nn23)cc1,inactive
16,COc1ccc(CCNCC(O)COc2ccc(Cl)cc2)cc1OC (stereo not given),inactive
17,CC(=O)N1CCN(C(=O)CC2OC(=O)c3ccccc32)CC1 (stereo not given),inactive
18,O=C(COc1ccc2c(c1)CCC2)NCc1ccccc1,inactive
19,COc1ccc2nc(NC(=O)c3ccc([N+](=O)[O-])o3)sc2c1,"inconclusive: 20.6 µM [activator, partial curve]"
20,Cc1sc(NC(=O)Nc2ccccc2)c(C(N)=O)c1C,"inconclusive: 11.6 µM [activator, partial curve]"
21,CCOc1ccc(NS(=O)(=O)c2ccc(C(=O)NCc3ccncc3)cc2)cc1,inactive
22,Cc1ccc(-c2csc(NS(=O)(=O)c3cccc(F)c3)n2)o1,inactive
23,CCC(C(=O)N1CCN(Cc2ccc3c(c2)OCO3)CC1)n1c(=O)[nH]c2ccccc2c1=O (stereo not given),inactive

# Structural class: the compounds so far containing an NH in an aromatic ring.
row,Structure (SMILES),Potency
12,CCOc1ccc(-c2[nH]ncc2Oc2ccccc2OCC)c(O)c1,inactive
23,CCC(C(=O)N1CCN(Cc2ccc3c(c2)OCO3)CC1)n1c(=O)[nH]c2ccccc2c1=O (stereo not given),inactive

# (continued)

row,Structure (SMILES),Potency
1,COc1cc(C(=O)NC(=S)NNC(=O)c2cnccn2)cc(OC)c1OC,"inconclusive: 20.6 µM [inhibitor, single point]"
2,CCC1C(=O)C(C)(C)C(=O)OC1c1ccc([N+](=O)[O-])cc1 (stereo not given),"inconclusive: 35.5 µM [activator, partial curve, poor fit]"
3,CN(C)c1ccc(C(=S)N2CCCCC2)cc1,"inconclusive: 23.1 µM [activator, single point]"
4,CC(C)C(O)(C#CCN1CCCCCC1)c1ccccc1 (stereo not given),"inconclusive: 29.1 µM [inhibitor, single point]"
5,CO/N=C/NC(=O)N1OC[C@@H]2COc3ccc4ccccc4c3[C@@H]21,inactive
6,COc1ccccc1N(Cc1ccccc1)S(=O)(=O)c1cccc(C(=O)Nc2ccccn2)c1,"inconclusive: 18.3 µM [activator, single point]"
7,O=C(C1CCCN(c2ncnc3c2nc2n3CCCCC2)C1)N1CCN(c2ccc(F)cc2)CC1 (stereo not given),"inconclusive: 16.4 µM [inhibitor, partial curve, poor fit]"
8,CNC(=O)c1cc2c(-c3ccccc3)nn(C)c2s1,inactive
9,NC(=O)N1N=C2/C(=C/c3ccccc3)CCCC2C1c1ccccc1 (stereo not given),"inconclusive: 32.6 µM [inhibitor, partial curve, poor fit]"
10,COc1ccc(O)c(/C=N/N=C2/C(=O)Nc3ccccc32)c1,"inconclusive: 14.6 µM [activator, partial curve, poor fit]"
11,O=C1c2ccccc2C(=O)N1CCCCSc1nnc2c(Cl)cc(Cl)cn12,inactive
12,Nc1nnc(-c2ccc(Cl)cc2)s1,"inconclusive: 18.4 µM [activator, partial curve]"
13,COc1cccc(C(=O)Nc2nnc(C(C)C)s2)c1,"inconclusive: 1.3 µM [activator, full curve]"
14,C=CCN1CCN(C(c2ccc(Cl)cc2)c2nnnn2CCc2ccc(OC)c(OC)c2)CC1 (stereo not given),inactive
15,CCN1CCCC1CNC(=O)Cn1nc(C)n2nc(-c3ccccc3)cc2c1=O (stereo not given),"inconclusive: 20.6 µM [activator, partial curve, poor fit]"
16,Cc1ccc2c(c1)C(=O)C(=O)N2CC(=O)OC(C)C,inactive
17,COc1cccc(CNC(=O)COC(=O)CCS(=O)(=O)c2ccc(C)cc2)c1,inactive
18,Cc1onc(-c2ccccc2)c1C(=O)N/N=C/c1ccc([N+](=O)[O-])s1,"inconclusive: 23.1 µM [inhibitor, single point]"
19,O=C1COc2ccc(C(=O)COC(=O)CCc3ccc(S(=O)(=O)N4CCOCC4)cc3)cc2N1,inactive
20,O=C(C1Cc2ccccc2CN1S(=O)(=O)c1cccs1)N1CCCCC1 (stereo not given),inactive
21,CN1C(=O)/C(=C/c2ccccc2F)Sc2ccc(C(=O)N3CCCC3)cc21,"inconclusive: 23.1 µM [inhibitor, single point]"
22,c1coc(-c2nnc(-c3cccs3)o2)c1,"inconclusive: 18.4 µM [activator, single point]"

# From PubChem BioAssay AID504467 (National Center for Advancing Translational Sciences (NCATS), 2011)
